# Assay results published in doi:10.1101/2025.04.15.648887.
# Results are given in words; binding and its absence hold for the method and conditions named. Binding seen in cells or lysates may run through a third protein. These calls come from enrichment with a bait or labelling near it, and not all partners need be listed.
# Molecular target: YTHDF3 (rat (endogenous in H9c2))
# Assay: affinity purification with mass spectrometry
binder,measurement,value
"DDX5 (protein, UniProt Q6AYI1 1-615) MSSYSSDRDRGRDRGFGAPRFGGSRTGPLSGKKFGNPGEKLVKKKWNLDELPKFEKNFYQEHPDLARRTAQEVDTYRRSKEITVRGHNCPKPVLNFYEANFPANVMDVIARQNFTEPTAIQAQGWPVALSGLDMVGVAQTGSGKTLSYLLPAIVHINHQPFLERGDGPICLVLAPTRELAQQVQQVAAEYCRACRLKSTCIYGGAPKGPQIRDLERGVEICIATPGRLIDFLECGKTNLRRTTYLVLDEADRMLDMGFEPQIRKIVDQIRPDRQTLMWSATWPKEVRQLAEDFLKDYIHINIGALELSANHNILQIVDVCHDVEKDEKLIRLMEEIMSEKENKTIVFVETKRRCDELTRKMRRDGWPAMGIHGDKSQQERDWVLNEFKHGKAPILIATDVASRGLDVEDVKFVINYDYPNSSEDYIHRIGRTARSTKTGTAYTFFTPNNIKQVSDLISVLREANQAINPKLLQLVEDRGSGRSRGRGGMKDDRRDRYSAGKRGGFNTFRDRENYDRGYSSLLKRDFGAKTQNGVYSAANYTNGSFGSNFVSAGIQTSFRTGNPTGTYQNGYDSTQQYGSNVANMHNGMNQQAYAYPATAAAAPMIGYPMPTGYSQ",binding,binds
